The text below walks through data of publication PMC10193013, “Nonstructural N- and C-tails of Dbp2 confer the protein full helicase activities” (The Journal of Biological Chemistry, 2023).

By UniProt entry, the sequences of proteins in these tests, tags left out. Residues count along the entry.
UniProt P24783, residues 53-496: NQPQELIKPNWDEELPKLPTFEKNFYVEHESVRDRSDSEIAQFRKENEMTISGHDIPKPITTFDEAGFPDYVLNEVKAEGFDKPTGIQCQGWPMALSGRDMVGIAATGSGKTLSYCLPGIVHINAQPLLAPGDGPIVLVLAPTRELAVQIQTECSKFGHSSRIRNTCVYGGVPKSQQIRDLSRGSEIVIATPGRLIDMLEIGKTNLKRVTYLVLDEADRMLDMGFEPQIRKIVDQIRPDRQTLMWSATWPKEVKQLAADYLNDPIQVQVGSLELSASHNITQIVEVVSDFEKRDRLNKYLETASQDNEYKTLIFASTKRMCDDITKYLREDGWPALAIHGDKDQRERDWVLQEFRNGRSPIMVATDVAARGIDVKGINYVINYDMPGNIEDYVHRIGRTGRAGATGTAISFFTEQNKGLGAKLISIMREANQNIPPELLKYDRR

Results are given in words; binding and its absence hold for the method and conditions named.

The target in test [1] is Dbp2 catalytic core, proteolytic fragment of full-length Dbp2 (crystallised with ADP) (S. cerevisiae) (UniProt P24783). Kind of test: crystal structure; Dbp2 helicase core with 20 mM ADP and 16 nt polyGT ssDNA; sitting drop, 20 °C, 2.02 M (NH4)2SO4, 100 mM Tris pH 7.5; space group P212121, six molecules in the asymmetric unit; both purified.
Test [2] deals with Dbp2^53-496 (helicase core of Dbp2) (S. cerevisiae) (UniProt P24783). Briefly: SAXS; Dbp2^53-496 with ADP in solution; beamline SWING (SOLEIL); both purified.

On to “Dbp2 catalytic core, proteolytic fragment of full-length Dbp2 (crystallised with ADP) (from UniProt P24783 53-496) (domain or fragment)”, for which, in test [1], the binding entry was “no binding”. Consider “Dbp2^53-496 (helicase core of Dbp2) (from UniProt P24783 53-496) (domain or fragment)”, for which the binding entry in test [2] was “no binding”.
